21 sequences from patent publication US20200230168 can be followed below.

One data set has as its target hSSB1 (Homo sapiens) (UniProt Q9BQ15). The experiment in a line: SPR. The following applies: purified recombinant protein.
The next data set has as its target THOC4 (ALYREF) (Homo sapiens?) (UniProt Q86V81). Nature of the data set: SPR. The settings on record: purified recombinant protein, counted as no binding.
The target in the next data set is hSSB2 (Homo sapiens) (UniProt Q96AH0). Nature of the data set: EMSA. The settings on record: 2'-OMe all, PS all; Tris pH 7.5, 100 mM KCl, 1 mM EDTA, 37C; single EMSA; purified recombinant protein; label: FAM. For orientation: Mobility shift assays separate free from complexed probe on a gel.
[1] abbreviates: gapmer: 2'-OMe PS wings (5 nt each), central unmodified, LSA_In3E3 = 1, variant of LSA_ATG.
Where [2] appears, read: gapmer: 2'-OMe PS wings (5 nt each), central unmodified DNA, LSA_In3E3 = 1, variant of LSA_In3E3.
The mark [3] stands for this setting: gapmer, 2'-OMe PS wings, unmodified DNA middle, counted as no binding.
Where [4] appears, read: gapmer, 2'-OMe PS wings, unmodified DNA middle.
Where [5] appears, read: 2'-OMe and PS except around T8 as printed.

For part of these data: Weaker means in comparison with the reference protein, sequence or condition of that experiment. For part of these data: For at least one entry, the source does not settle the construct or the ends of the probe. For part of these data: The direction of at least one scale is not stated here.

Consider “CACGUACCUUAGUGCCUCAC [Open_L ZEN (DKLS665920)]”, for which, in the data set with hSSB1 (Homo sapiens) (2'-OMe all, ZEN at both ends, counted as no binding), the binding signal (normalized Rmax) worked out at 0.07.

On to “CAGAGGCAGCAGTACGACGG [LSA_ATG gapmer (DKLS292688)]”, for which the figures for the binding signal (normalized Rmax) with hSSB1 (Homo sapiens) (setting [1]) and in the data set with THOC4 (ALYREF) (setting [1]) were 0.2 and 0, respectively. With “CAGAGGCAGCAGUACGACGG [LSA_ATG 2'-OMe PD (DKLS459014)]”, the binding signal (normalized Rmax) with hSSB1 (Homo sapiens) (2'-OMe all, phosphodiester, LSA_In3E3 = 1, variant of LSA_ATG, counted as no binding) was 0.1; with THOC4 (ALYREF) (2'-OMe all, phosphodiester, LSA_In3E3 = 1, variant of LSA_ATG), -0.02. For the sequence “CAGAGGCAGCAGUACGACGG [LSA_ATG 2'-OMe PS ends (DKLS286198)]”, the binding signal (normalized Rmax) in the data set with THOC4 (ALYREF) (2'-OMe all, PS three at each end, LSA_In3E3 = 1, variant of LSA_ATG) is -0.02. In the case of “CAGAGGCAGCAGUACGACGG [LSA_ATG ZEN (DKLS649218)]”, in the data set with THOC4 (ALYREF) (2'-OMe all, ZEN at both ends), the binding signal (normalized Rmax) was -0.09. As to “CAGAGGCAGCAGUACGACGG [LSA_ATG unmodified PD (DKLS858330)]”, the binding signal (normalized Rmax) with hSSB1 (Homo sapiens) (none, phosphodiester, LSA_In3E3 = 1, variant of LSA_ATG, counted as no binding) was found to be 0.03; with THOC4 (ALYREF) (none, phosphodiester, LSA_In3E3 = 1, variant of LSA_ATG), 0.04. Take CCAGUGAGCCGGACTUGCCU [In3LSA_GAP]: the binding signal (normalized Rmax) was 0.55 with hSSB1 (Homo sapiens) (setting [2]) and -0.1 with THOC4 (ALYREF) (setting [2]). As for “CCAGUGAGCCGGACUUGCCU [In3E3 2'-OMe PD (DKLS644620)]”, the binding signal (normalized Rmax) was 0.03 with hSSB1 (Homo sapiens) (2'-OMe all, phosphodiester, LSA_In3E3 = 1, variant of LSA_In3E3, counted as no binding) and -0.14 with THOC4 (ALYREF) (2'-OMe all, phosphodiester, LSA_In3E3 = 1, variant of LSA_In3E3). As to “CCAGUGAGCCGGACUUGCCU [In3E3 2'-OMe PS ends (DKLS621499)]”, in the data set with THOC4 (ALYREF) (2'-OMe all, PS three at each end, LSA_In3E3 = 1, variant of LSA_In3E3), the binding signal (normalized Rmax) is -0.13. In the case of “CCAGUGAGCCGGACUUGCCU [In3E3 ZEN (DKLS991101)]”, the binding signal (normalized Rmax) in the data set with THOC4 (ALYREF) (2'-OMe all, phosphodiester, ZEN at both ends, LSA_In3E3 = 1, variant of LSA_In3E3) is -0.13. Take “CCAGUGAGCCGGACUUGCCU [In3E3 unmodified PD (DKLS300878)]”: the binding signal (normalized Rmax) was 0.03 with hSSB1 (Homo sapiens) (none, phosphodiester, LSA_In3E3 = 1, variant of LSA_In3E3, counted as no binding) and -0.05 with THOC4 (ALYREF) (none, phosphodiester, LSA_In3E3 = 1, variant of LSA_In3E3). In the case of “CCAUCTGTAATTACAAAAUUAAA [DKLS656574 (SEQ 19)]”, the binding signal (normalized Rmax) is -0.03 in the data set with hSSB1 (Homo sapiens) (setting [3]) and 0.01 in the data set with THOC4 (ALYREF) (setting [4]). The corresponding values for “CGCGUCACTCGCACTCGCCU [In3E3_CT5 gapmer (DKLS415889)]” are 0.05 and -0.16. “CUCAUTCCTACCGACACCCC [NEG_C_GAP (DKLS848880)]”: the values for the binding signal (normalized Rmax) in the data set with hSSB1 (Homo sapiens) (setting [4]) and with THOC4 (ALYREF) (setting [4]) were 0.56 and -0.1, respectively. Consider CUCAUUCCUACCGACACCCC [Neg_C], for which, in the data set with hSSB2 (Homo sapiens), the binding result was “binds more weakly”. For “CUGCCTAAGTAAAAAGTGUAAAC [DKLS934835 (SEQ 18)]”, the values for the binding signal (normalized Rmax) with hSSB1 (Homo sapiens) (setting [3]) and in the data set with THOC4 (ALYREF) (setting [4]) were -0.14 and 0, respectively. For GAGGAACTCCGCCGC [DKLS474224 (SEQ 24)], the binding signal (normalized Rmax) in the data set with hSSB1 (Homo sapiens) (setting [5]) was determined as 0.23; with THOC4 (ALYREF) (setting [5]), 0.14. With “GAGUAAACATTCTGTGTGGAGUC [DKLS799151 (SEQ 20)]”, the binding signal (normalized Rmax) amounted to 0.12 with hSSB1 (Homo sapiens) (setting [3]) and 0.02 in the data set with THOC4 (ALYREF) (setting [4]). In the case of “GUCUCCGTCGTCATGCUGCC [ASO_ATG gapmer (DKLS426564)]”, the binding signal (normalized Rmax) was 0.16 with hSSB1 (Homo sapiens) (setting [4]) and -0.03 with THOC4 (ALYREF) (setting [4]). Turning to “GUGCAUGGAAUCACGGAGUG [Open_A 2'-OMe PD (DKLS934835)]”, the binding signal (normalized Rmax) in the data set with hSSB1 (Homo sapiens) (2'-OMe all, phosphodiester, LSA_In3E3 = 1, variant of Open_A_1, counted as no binding) was -0.03; in the data set with THOC4 (ALYREF) (2'-OMe all, phosphodiester, LSA_In3E3 = 1, variant of Open_A_1) it was 0. Consider “GUGCAUGGAAUCACGGAGUG [Open_A ZEN (DKLS651753)]”, for which the binding signal (normalized Rmax) is 0.07 in the data set with hSSB1 (Homo sapiens) (2'-OMe all, phosphodiester, ZEN at both ends, LSA_In3E3 = 1, variant of Open_A_1, counted as no binding) and -0.12 with THOC4 (ALYREF) (2'-OMe all, phosphodiester, ZEN at both ends, LSA_In3E3 = 1, variant of Open_A_1).
